Experimental data published in doi:10.1101/2021.05.12.443820.

The chains behind the UniProt entries cited, without tags or fusion partners.
UniProt P35580: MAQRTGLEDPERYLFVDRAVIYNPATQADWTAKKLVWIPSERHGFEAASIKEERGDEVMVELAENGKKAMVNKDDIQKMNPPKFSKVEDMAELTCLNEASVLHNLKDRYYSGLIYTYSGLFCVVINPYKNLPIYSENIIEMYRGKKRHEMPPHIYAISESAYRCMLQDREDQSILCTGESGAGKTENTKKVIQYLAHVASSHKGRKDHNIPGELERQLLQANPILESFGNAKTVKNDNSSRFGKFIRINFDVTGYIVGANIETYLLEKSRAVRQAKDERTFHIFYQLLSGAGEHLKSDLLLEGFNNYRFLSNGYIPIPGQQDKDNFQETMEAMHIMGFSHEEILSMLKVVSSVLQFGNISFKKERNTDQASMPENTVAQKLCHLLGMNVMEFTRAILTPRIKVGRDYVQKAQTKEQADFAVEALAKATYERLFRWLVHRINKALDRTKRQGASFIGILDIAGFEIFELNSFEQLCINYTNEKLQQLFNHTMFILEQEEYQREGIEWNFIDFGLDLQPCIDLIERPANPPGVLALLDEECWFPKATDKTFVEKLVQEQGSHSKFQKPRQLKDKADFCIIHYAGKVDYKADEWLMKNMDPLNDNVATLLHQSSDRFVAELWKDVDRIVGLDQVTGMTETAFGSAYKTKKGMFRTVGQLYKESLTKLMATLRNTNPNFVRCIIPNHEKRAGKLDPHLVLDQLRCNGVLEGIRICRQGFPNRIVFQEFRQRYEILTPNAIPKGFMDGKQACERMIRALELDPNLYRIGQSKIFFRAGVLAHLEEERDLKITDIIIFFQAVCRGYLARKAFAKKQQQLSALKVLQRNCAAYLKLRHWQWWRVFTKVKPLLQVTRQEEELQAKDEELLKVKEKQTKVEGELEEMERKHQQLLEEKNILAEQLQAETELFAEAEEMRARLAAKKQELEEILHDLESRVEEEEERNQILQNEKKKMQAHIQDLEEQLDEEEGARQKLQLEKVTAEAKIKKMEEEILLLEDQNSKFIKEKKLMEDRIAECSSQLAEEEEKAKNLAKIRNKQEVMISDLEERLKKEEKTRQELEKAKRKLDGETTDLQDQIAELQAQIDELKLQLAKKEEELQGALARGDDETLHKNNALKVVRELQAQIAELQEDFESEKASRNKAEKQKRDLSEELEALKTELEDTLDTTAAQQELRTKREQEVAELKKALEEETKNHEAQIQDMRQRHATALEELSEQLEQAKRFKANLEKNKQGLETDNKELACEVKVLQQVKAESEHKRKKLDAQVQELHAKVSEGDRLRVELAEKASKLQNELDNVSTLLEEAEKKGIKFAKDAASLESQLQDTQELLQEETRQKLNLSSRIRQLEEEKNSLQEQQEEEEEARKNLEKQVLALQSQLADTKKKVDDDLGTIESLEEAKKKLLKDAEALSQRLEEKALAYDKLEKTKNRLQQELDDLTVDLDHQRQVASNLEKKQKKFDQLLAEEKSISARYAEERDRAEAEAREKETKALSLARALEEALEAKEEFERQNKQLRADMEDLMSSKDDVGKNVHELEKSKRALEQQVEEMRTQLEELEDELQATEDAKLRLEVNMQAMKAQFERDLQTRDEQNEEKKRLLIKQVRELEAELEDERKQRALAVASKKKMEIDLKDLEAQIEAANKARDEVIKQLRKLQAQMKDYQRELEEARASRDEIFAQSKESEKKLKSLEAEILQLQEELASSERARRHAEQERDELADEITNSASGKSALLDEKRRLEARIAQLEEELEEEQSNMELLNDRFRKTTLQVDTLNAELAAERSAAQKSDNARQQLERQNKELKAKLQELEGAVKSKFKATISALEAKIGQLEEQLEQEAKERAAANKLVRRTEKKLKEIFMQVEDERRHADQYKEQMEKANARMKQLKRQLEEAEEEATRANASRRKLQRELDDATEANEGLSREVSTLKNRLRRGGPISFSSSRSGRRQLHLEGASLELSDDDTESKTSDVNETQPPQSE
UniProt P35579: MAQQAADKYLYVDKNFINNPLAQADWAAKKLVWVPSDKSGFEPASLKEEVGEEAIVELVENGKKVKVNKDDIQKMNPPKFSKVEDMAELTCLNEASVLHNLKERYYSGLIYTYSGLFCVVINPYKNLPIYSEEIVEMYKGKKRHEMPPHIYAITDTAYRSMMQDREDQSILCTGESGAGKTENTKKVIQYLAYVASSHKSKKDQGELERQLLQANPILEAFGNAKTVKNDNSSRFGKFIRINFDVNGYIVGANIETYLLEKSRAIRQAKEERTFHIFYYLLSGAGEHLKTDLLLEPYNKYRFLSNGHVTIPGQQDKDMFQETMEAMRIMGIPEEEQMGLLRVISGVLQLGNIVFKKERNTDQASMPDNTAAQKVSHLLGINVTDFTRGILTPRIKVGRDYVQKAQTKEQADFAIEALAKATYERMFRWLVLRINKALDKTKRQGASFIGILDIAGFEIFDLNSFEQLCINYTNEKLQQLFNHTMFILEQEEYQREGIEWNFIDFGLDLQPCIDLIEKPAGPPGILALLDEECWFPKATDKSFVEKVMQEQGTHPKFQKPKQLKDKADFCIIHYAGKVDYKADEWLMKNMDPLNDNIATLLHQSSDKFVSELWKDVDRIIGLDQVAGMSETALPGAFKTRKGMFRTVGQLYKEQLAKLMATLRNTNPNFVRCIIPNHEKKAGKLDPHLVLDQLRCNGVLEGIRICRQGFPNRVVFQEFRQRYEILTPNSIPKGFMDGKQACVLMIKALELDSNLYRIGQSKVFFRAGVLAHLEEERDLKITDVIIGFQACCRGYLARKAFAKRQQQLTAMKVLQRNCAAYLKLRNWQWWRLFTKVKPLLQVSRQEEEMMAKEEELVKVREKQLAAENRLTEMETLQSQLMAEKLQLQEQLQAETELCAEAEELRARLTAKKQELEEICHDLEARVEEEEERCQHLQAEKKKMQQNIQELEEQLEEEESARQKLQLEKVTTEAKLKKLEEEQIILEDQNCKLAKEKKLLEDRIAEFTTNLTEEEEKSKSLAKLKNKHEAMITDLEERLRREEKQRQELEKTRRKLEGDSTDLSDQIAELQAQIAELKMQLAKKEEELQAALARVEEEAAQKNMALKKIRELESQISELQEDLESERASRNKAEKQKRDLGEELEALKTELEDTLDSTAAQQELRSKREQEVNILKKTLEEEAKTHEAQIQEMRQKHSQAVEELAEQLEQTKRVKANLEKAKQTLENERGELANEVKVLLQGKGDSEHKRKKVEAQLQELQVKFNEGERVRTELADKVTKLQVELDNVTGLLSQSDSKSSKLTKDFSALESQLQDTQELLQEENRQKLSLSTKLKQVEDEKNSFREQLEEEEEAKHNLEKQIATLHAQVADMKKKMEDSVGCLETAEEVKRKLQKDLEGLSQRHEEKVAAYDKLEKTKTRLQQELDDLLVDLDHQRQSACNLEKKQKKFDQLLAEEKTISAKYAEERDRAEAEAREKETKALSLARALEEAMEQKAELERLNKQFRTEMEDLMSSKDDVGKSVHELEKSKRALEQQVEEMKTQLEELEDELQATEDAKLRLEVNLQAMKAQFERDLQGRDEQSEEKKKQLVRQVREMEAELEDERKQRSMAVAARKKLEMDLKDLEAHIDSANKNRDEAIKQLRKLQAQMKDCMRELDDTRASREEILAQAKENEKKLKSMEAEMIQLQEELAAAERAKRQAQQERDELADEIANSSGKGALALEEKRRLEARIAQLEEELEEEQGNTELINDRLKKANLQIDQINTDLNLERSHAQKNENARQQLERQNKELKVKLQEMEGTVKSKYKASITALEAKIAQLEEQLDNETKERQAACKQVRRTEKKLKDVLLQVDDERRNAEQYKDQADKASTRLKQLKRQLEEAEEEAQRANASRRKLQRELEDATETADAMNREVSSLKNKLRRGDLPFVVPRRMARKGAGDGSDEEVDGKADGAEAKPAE

Target: Flag-Lmo7 (Lim domain only protein 7), full-length (Xenopus laevis) (UniProt B5DE43)
Assay: co-IP

| binding | Substance |
| --- | --- |
| binds | Non-muscle myosin II heavy chain B (NMIIB), endogenous (from UniProt P35580 1-1976) |
| binds | Non-muscle myosin II heavy chain A (NMIIA), endogenous (from UniProt P35579 1-1960) |

No constants are given. Whether binding was seen depends on the method and setting. In cells and extracts the contact can be indirect. A result given as binding can be weak or reduced; the word gives no strength.
